Measurements reported in PubChem BioAssay AID624291 (National Center for Advancing Translational Sciences (NCATS), 2012).
About 220 (0.063%) of roughly 350,000 compounds were called active. The shares of active, inactive and inconclusive entries below differ from those in the screen. Calls follow the shape of the dose curve; as a rule, active = well fitted activation curve with a large enough effect; inconclusive = small, poorly fitted or top-dose-only effect; inactive = no such curve, though single readings can be large or run the other way. Potencies of inconclusive entries are doubtful fits and often do not repeat.

assay: qHTS for Activators of Integrin-Mediated Alleviation for Muscular Dystrophy; conditions: alpha7betagal myoblasts, beta-gal FDG fluorescence, 48 h; activation: at 38.3 µM (top of the series); also: nearly all actives have a fitted effect of over 60% in size;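 as to activation: 100% = response of the positive control SU9516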
In short: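 alpha7betagal+/- myoblasts (passage 13, 250/well) treated 48 h at 37C with compounds at 1:260 dilution of DMSO stock. Lysed, then beta-galactosidase activity read as FDG fluorescence (ex 480/em 540) after 30 min, with pre-read for autofluorescence.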
Potency is read from the fitted curve at half-maximal effect.

SMILES | Potency | activation
Cc1ccc(CNC(=O)CCc2nnc3ccc(N4CCC5(CC4)OCCO5)nn23)cc1 | inconclusive: 7.94 µM [activator, partial curve] | 
Cc1ccc(S(=O)(=O)C2(S(=O)(=O)c3ccc(C)cc3)CC2)cc1 | inconclusive: 1.58 µM [activator, partial curve, poor fit] | 
CN(C)S(=O)(=O)c1ccc(C(=O)OCC(=O)NCc2ccccc2)cc1 | inconclusive: 28.2 µM [activator, single point] | 
O=C(NCc1ccco1)C(=O)c1cn(CC(=O)N2CCCCC2)c2ccccc12 | inactive | 
CC1CCN(C(=O)c2ccc(-c3ccccc3Cl)o2)CC1 | inactive | 
O=C1/C(=C/c2ccc([N+](=O)[O-])cc2)C=C(c2ccccc2)N1c1ccccc1 | inactive | 
COc1ccc(OCC(=O)OCC(=O)c2ccc(OC)c(F)c2)cc1 | inconclusive: 10 µM [activator, partial curve] | 
CC(C)Cn1c(N)c(C(=O)COC(=O)Cc2cccs2)c(=O)n(C)c1=O | inactive | 
Cc1cccc(C)c1NCC(=O)N1CCN(Cc2ccccc2)CC1 | inconclusive: 10 µM [activator, partial curve, poor fit] | 
CCOC(=O)N1CCN(C(=O)CN(Cc2ccccc2)S(=O)(=O)c2ccc(OC)c(Cl)c2)CC1 | inactive | 
CCOC(=O)c1sc(NC(=O)CSc2n[nH]c(-c3ccc(Cl)cc3Cl)n2)c(C#N)c1C | inactive | 
COc1ccccc1-c1c(NC(=O)C(C)C)n(C)c2ccccc2c1=O | inconclusive: 8.91 µM [activator, partial curve, poor fit] | 
CCOC(=O)CCC(NC(=O)CC(=O)NC(CCC(=O)OCC)C(=O)OCC)C(=O)OCC (stereo unspecified) | inconclusive: 8.91 µM [activator, partial curve, poor fit] | 
Cc1nn(C)c(C)c1NS(=O)(=O)c1ccc(Cl)s1 | inconclusive: 28.2 µM [activator, single point] | 
CN(C)CCCN(C(=O)c1cc(Cl)sc1Cl)c1nc2cc3c(cc2s1)OCO3 | inconclusive: 1.26 µM [activator, partial curve, poor fit] | 
O=C(NCc1ccccn1)Nc1cc(Cl)ccc1Cl | inconclusive: 5.01 µM [activator, single point] | 
CC(=O)N=c1scc(-c2ccccc2)n1-c1cccc(O)c1 | inactive | 
CCC(C)(C)n1nnnc1C(c1cccnc1)N1CCCc2ccccc21 (stereo unspecified) | inactive | 
CCOC(=O)CN1C(=O)N(c2ccccc2OC)S(=O)(=O)c2ccccc21 | inconclusive: 2.82 µM [activator, single point] | 
COC(=O)c1ccc(NC(=S)NCC2CC2)cc1 | inactive | 
O=c1c2ccccc2nc(COc2ccccc2)n1/N=C/c1cn[nH]c1-c1ccccc1 | inconclusive: 28.2 µM [activator, single point] | 
OC1(c2ccccc2)C/C(=N\n2cnnc2)C=C1c1ccccc1 (stereo unspecified) | inconclusive: 5.01 µM [activator, full curve] | 
CCSc1nc(CC)c2c(c1C#N)CCCC2 | inactive | 
CCN(CC(=O)N1CCCCCC1)S(=O)(=O)c1ccc(C)cc1 | inconclusive: 11.2 µM [activator, single point] | 

Reprinted at random: two records from the list.
SMILES | Potency | activation
CC(=O)N=c1scc(-c2ccccc2)n1-c1cccc(O)c1 | inactive | 
Cc1ccc(CNC(=O)CCc2nnc3ccc(N4CCC5(CC4)OCCO5)nn23)cc1 | inconclusive: 7.94 µM [activator, partial curve] | 

(further entries)

SMILES | Potency | activation
CC(On1c(-c2ccccc2)nc2ccc(Cl)cc21)C(=O)O (stereo unspecified) | inconclusive: 0.501 µM [activator, full curve, poor fit] | 
Cc1cc2occ(CC(=O)N(C)CC(=O)Nc3cccc(F)c3)c2cc1C | inconclusive: 10 µM [activator, single point] | 
COc1ccc(-c2cn3cc(C(=O)NN)ccc3n2)cc1 | inconclusive: 3.16 µM [activator, partial curve, poor fit] | 
O=C(COC(=O)COc1ccccc1)NCCC1=CCCCC1 | inconclusive: 4.47 µM [activator, single point] | 
CCOC(=O)C1(Cc2cccc(Cl)c2)CCCN(C(=O)CN2C(=O)CSC2=O)C1 (stereo unspecified) | inactive | 
O=C(O)C(C(=O)/C=C/c1ccco1)=C1SCCS1 | inactive | 
COc1ccc(-c2nn(C)c(=O)c3ccccc23)cc1CNS(C)(=O)=O | inactive | 
Cc1ccc(-n2nc3c(c2NC(=O)C2CCCC2)CS(=O)(=O)C3)cc1 | inconclusive: 2.82 µM [activator, single point] | 
Cc1ccc(C)c(OCC(=O)NNC(=O)CCN2CCN(c3ccccc3)CC2)c1 | inactive | 
CCNC(=O)NC(=O)C(C)OC(=O)c1oc2ccc(OC)cc2c1C (stereo unspecified) | inactive | 
COC(=O)CCc1c(C)c(C(=O)c2cccc(OC)c2OC)c2ccccn12 | inconclusive: 0.794 µM [activator, partial curve, poor fit] | 
O=C(Nc1ccc(Cl)cc1)c1cc(-c2cccs2)on1 | inconclusive: 14.1 µM [activator, single point] | 
COc1ccccc1NC(=O)/C=C/C(=O)O | inconclusive: 0.501 µM [activator, full curve, poor fit] | 
CC1=NN(C(N)=S)C(=O)C1N=Nc1ccc(S(N)(=O)=O)cc1 (stereo unspecified) | inconclusive: 3.16 µM [activator, single point] | 
CCn1c(/C=C/c2cc(Br)ccc2O)nc2ccccc2c1=O | inconclusive: 3.16 µM [activator, single point] | 
CCSc1nsc(NC(=O)Nc2ccc(F)cc2F)n1 | inconclusive: 5.01 µM [activator, single point] | 
COc1cccc(CN(C)CCCn2cnc3c(OC)ncnc32)c1 | inactive | 
CC(C)Cn1c(N)c(C(=O)COC(=O)C2CC(=O)N(Cc3ccccc3Cl)C2)c(=O)n(C)c1=O (stereo unspecified) | inactive | 
S=C(N/N=C/c1cccc2ccccc12)Nc1cccc(Cl)c1 | inactive | 
Clc1ccc(Cn2ncc3c(N4CCCCC4)ncnc32)cc1 | inactive | 
O=C(N/N=C/c1ccncc1)c1cc2ccccc2o1 | inactive | 
COc1ccc(Cl)cc1C(=O)NCc1ccc2c(c1)OCO2 | inconclusive: 2.51 µM [activator, partial curve, poor fit] | 
COc1ccc(Br)cc1/C=N/NC(=O)c1cccc(S(=O)(=O)N2CCOCC2)c1 | inconclusive: 2.51 µM [activator, single point] | 
O=C(O)/C=C/c1cccc(OCc2ccccc2)c1 | inconclusive: 5.62 µM [activator, single point] | 

SMILES | Potency | activation
CCCCN(C(=O)C(C)N1C(=O)c2ccccc2C1=O)c1c(N)n(CCCC)c(=O)[nH]c1=O (stereo unspecified) | inconclusive: 5.01 µM [activator, partial curve, poor fit] | 
COc1ccccc1NS(=O)(=O)c1cc(NC(=O)c2cc(F)c(F)c(F)c2F)ccc1N1CCOCC1 | inconclusive: 5.01 µM [activator, single point] | 
CC(=O)c1ccc(-c2ccc(C(=O)NC3CCCCCC3)o2)cc1 | inconclusive: 0.891 µM [activator, full curve, poor fit] | 
CC1(C)CC(=O)C(CC(=O)NC2CCCc3ccccc32)C(=O)C1 (stereo unspecified) | inconclusive: 8.91 µM [activator, single point] | 
COc1ccc2oc(C(=O)Nc3nccs3)c(C)c2c1 |  | inconclusive: 38.3% [activator]
Cc1cccc(NS(=O)(=O)c2ccc3oc(=O)ccc3c2)c1C | inconclusive: 10 µM [activator, partial curve, poor fit] | 
C=CCn1c(C)cc(-c2csc(NC(=O)CCc3nc4ccccc4c(=O)[nH]3)n2)c1C | inactive | 
COc1cccc(C(=O)COc2ccc3ccc(=O)oc3c2)c1 | inconclusive: 7.94 µM [activator, partial curve] | 
Cc1ccccc1-c1ccc(CN2CCN(C)C(CCO)C2)cc1 (stereo unspecified) | inconclusive: 3.98 µM [activator, single point] | 
COc1ccc(N2C(=O)CC(Nc3ccc(C(=O)O)cc3)C2=O)cc1OC (stereo unspecified) | inconclusive: 28.2 µM [activator, single point] | 
Oc1ccc(NCc2cccc(OCc3ccccc3)c2)cc1 | inactive | 
Cc1cccc(-c2nnc(SCC(=O)NC3CCCC3)o2)c1 | inconclusive: 5.01 µM [activator, single point] | 
CN(Cc1cccs1)C(=O)CCc1c[nH]c2ccccc12 | inconclusive: 5.01 µM [activator, single point] | 
CC(C)N(CCn1cnc2c([nH]c3ccccc32)c1=O)C(C)C | inconclusive: 3.55 µM [activator, single point] | 
CC(=O)Oc1ccc2c(=O)c(N3C(=O)c4ccccc4C3=O)c(C)oc2c1C | inconclusive: 20 µM [activator, single point] | 
ONC=Nc1cccc2nonc12 | inconclusive: 5.01 µM [activator, single point] | 
COc1ccc(CCNC(=O)CSC(=O)c2ccccc2)cc1OC | inconclusive: 5.01 µM [activator, single point] | 
O=C(Nc1ccc(CN2CCOCC2)cc1)c1ccc(Cl)cc1Cl | inactive | 
O=[N+]([O-])c1ccc(N2CCN(c3ccccc3F)CC2)nc1 | active: 5.62 µM | 
CC1CCN(CC(O)COCCC23CC4CC(CC(C4)C2)C3)CC1 (stereo unspecified) | inactive | 
NC(=O)c1cc(S(=O)(=O)NCCc2ccc(Cl)cc2)cs1 | inconclusive: 11.2 µM [activator, single point] | 
COc1ccc(-c2cc3c(=O)n(CC(=O)N4CCCCC4)ncn3n2)cc1 | inconclusive: 15.8 µM [activator, single point] | 
COC(=O)C(C)Oc1cc(C)ccc1COc1ccc(-n2nc(C)n(C(F)F)c2=O)cc1 (stereo unspecified) | inconclusive: 3.16 µM [activator, single point] | 
